PMC12040169 (PLOS Biology, 2025)
Like-named read-outs stand apart in the source and are kept apart here. The list shows a part of the results.

Tested on: T1, CTL2-GFP (C. trachomatis L2/434/Bu, GFP-expressing)
T1 construct: L2/434/Bu, GFP-expressing
Set-up: species or system HeLa; Intracellular C. trachomatis growth in HeLa cells, bulk GFP fluorescence relative to DMSO
Details: bulk GFP, single well, 28.5 h, 10 µM, inhibitor

| Compound | % of control remaining [%] | % of control remaining (Bulk GFP fluorescence) [%] |
| --- | --- | --- |
| Cc1cc(Cc2ccccc2F)cc(C2CCN(C(=O)c3nc4ccc(F)cc4[nH]3)CC2)n1 [CBK285932] | 84.8176 | – |
| CC(C)Cn1cnc(S(=O)(=O)N2CCC(OCc3ccncc3)C2)c1 (centres unmarked) [CBK305456] | 118.652 | – |
| CN(CC1CCCCC1)C(=O)c1cc2ccsc2[nH]1 [CBK304518] | 135.511 | – |
| Cc1c(C)n(Cc2ccco2)c2ncnc(N3CCC(C(=O)O)CC3)c12 [CBK307599] | 127.367 | – |
| NC(=O)c1c(NC(=O)C2CC(=O)OC23CCCCC3)sc2c1CCCCC2 (centres unmarked) [CBK264189] | 110.471 | – |
| CN(C(=O)C1CCCO1)c1nc2c(s1)CCc1occc1-2 (centres unmarked) [CBK283483] | 101.755 | – |
| COc1cc2ccccc2cc1C(=O)Nc1nnc(-c2ccncc2)o1 [CBK287432] | 139.491 | – |
| O=C(O)CCCNC(=O)c1ccncc1 [CBK261146] | 113.552 | – |
| O=C(NC(c1ccccc1)c1ccco1)C1CCN(C(=O)CCC2CCCC2)CC1 (centres unmarked) [CBK059887] | 124.428 | – |
| CCCCc1nccc(-c2ccc(OCC)c(C(=O)O)c2)n1 [CBK307429] | 155.872 | – |
| COC(C)c1nc(C)c(C(=O)NC2CCCN(c3ccn(C)n3)C2=O)s1 (centres unmarked) [CBK305454] | 131.772 | – |
| Cn1c(CSc2nc3sc4c(c3c(=O)[nH]2)CCCC4)nnc1SC/C=C/c1ccccc1 [CBK264428] | 115.871 | – |
| NC(=O)c1c(NC(=O)c2ccc(COc3cc(Cl)ccc3Cl)o2)sc2c1CCCC2 [CBK265775] | 125.488 | – |
| Cc1cc(C(C)(C)C)cc(S(=O)(=O)Nc2ccc(C(=O)O)c(O)c2)c1C [CBK299820] | 105.1 | – |
| CS(=O)(=O)CCNC(=O)c1cnc(-c2ccc(F)cc2)c(-c2cccnc2)c1 [CBK038066] | 105.375 | – |
| COC(=O)c1ccc(SCc2nc(N3CCOCC3)c3c(c2C#N)CC(C)(C)OC3)o1 [CBK019077] | 126.33 | – |
| CC(C)(C)C1=CC2=NC3(CCC3)C3C[C@](O)(CO)[C@@H](O)[C@@H]3N2O1 (some centres unmarked) [CBK303262] | 162.667 | – |
| O=C(O)C1(Cc2ccc(-c3cccs3)cc2)CCNC1 (centres unmarked) [CBK281679] | 97.79 | – |
| CC(C(=O)N1C2CCC1CC(O)(c1ccco1)C2)c1ccccc1 (centres unmarked) [CBK284112] | 122.887 | – |
| COc1ccc(C(=O)N[C@H]2C[C@@H]3C(=O)N[C@H]4CCN(C(=O)C5CCC5)[C@@H]4C(=O)N3C2)cc1 [CBK289266] | 130.63 | – |
| NS(=O)(=O)c1ccc(CN2CCCC2=O)cc1 [CBK288420] | 86.6511 | – |
| COCc1cn(C2CCN(c3cc(-n4cc(C)cn4)ncn3)CC2)nn1 [CBK307388] | 124.583 | – |
| CC(C)(C)NC(=O)N1CCC(Nc2nccc(C(F)(F)F)n2)CC1 [CBK028788] | 114.27 | – |
| O=C(NC1CCc2ccccc21)N1CCN(c2ccccc2)CC1 (centres unmarked) [CBK155208] | 152.824 | – |
| CC[C@H]1C[N@@]2CC[C@H]1C[C@@H]2CNS(=O)(=O)c1ccc(NC(C)=O)cc1 [CBK288745] | 136.653 | – |
| O=C(O)CCN1C(=O)C(=Cc2ccc(OCc3ccccc3)cc2)c2ccccc2C1=O [CBK297552] | 135.046 | – |

Random excerpt: 4 compounds from above.

| Compound | % of control remaining [%] | % of control remaining (Bulk GFP fluorescence) [%] |
| --- | --- | --- |
| CC[C@H]1C[N@@]2CC[C@H]1C[C@@H]2CNS(=O)(=O)c1ccc(NC(C)=O)cc1 [CBK288745] | 136.653 | – |
| NS(=O)(=O)c1ccc(CN2CCCC2=O)cc1 [CBK288420] | 86.6511 | – |
| Cn1c(CSc2nc3sc4c(c3c(=O)[nH]2)CCCC4)nnc1SC/C=C/c1ccccc1 [CBK264428] | 115.871 | – |
| CS(=O)(=O)CCNC(=O)c1cnc(-c2ccc(F)cc2)c(-c2cccnc2)c1 [CBK038066] | 105.375 | – |

The listing continues.

| Compound | % of control remaining [%] | % of control remaining (Bulk GFP fluorescence) [%] |
| --- | --- | --- |
| COc1ccc(-c2ccnc(N[C@H]3CO[C@H]4[C@@H]3OC[C@@H]4NC(=O)C3CCCCC3)n2)cc1 [CBK289527] | 106.599 | – |
| CC(C)NC(=O)N(C)C1CCN(c2ncnc3ccccc23)CC1 [CBK306224] | 110.495 | – |
| CN1C(=O)C2(CC(=O)N(CCC3CCCCC3)C2=O)c2cc(Cl)ccc21 (centres unmarked) [CBK075231] | 107.52 | – |
| Cc1ccccc1Nc1nnc(-c2ccc(C(=O)NCCO)cc2)c2ccccc12 [CBK263743] | 93.3494 | – |
| CC(=O)NC[C@H]1CN(c2ccc(-c3nnc(CCC#N)s3)c(F)c2)C(=O)O1 [CBK017926] | 9.2428 | – |
| CCC(Sc1nc(=O)cc(-c2ccccc2)[nH]1)C(=O)O (centres unmarked) [CBK287135] | 127.812 | – |
| COc1ccc(CCCN2CCC(C(=O)NC(=O)Nc3cc(OC)c(OC)c(OC)c3)CC2)cc1 [CBK034855] | 154.018 | – |
| CC(=O)N[C@H](C(=O)N1CC[C@@H]2NC(=O)[C@@H](Cc3ccccc3)NC(=O)C3(C/C=C/C[C@@H]2C1)CCOCC3)[C@@H](C)O [CBK292186] | 115.062 | – |
| C[C@@H](Nc1nc(-c2cccc3ncccc23)cnc1N)c1ccccc1 [CBK063755] | 100.296 | – |
| COC(=O)N1CCc2ccc(N3C[C@H](CNC(C)=O)OC3=O)cc2CC1 [CBK022485] | 14.7837 | – |
| O=C(Cc1ccccc1)N1CCCC1c1n[nH]cc1-c1ccncc1 (centres unmarked) [CBK283435] | 138.531 | – |
| COC(=O)CCCN1CCCC12CCc1[nH]c3ccccc3c1C2 (centres unmarked) [CBK107798T] | 109.836 | – |
| CCOc1ccsc1C(=O)N1CCN(CCc2ccccc2)CC1 [CBK200229] | 111.181 | – |
| Cc1ccc(S(=O)(=O)NCC(=O)Nc2ccc3cc(Br)cnc3n2)cc1 [CBK067429] | 88.1569 | – |
| CCC(NC(=O)Nc1ccccc1C(=O)O)(C(F)(F)F)C(F)(F)F [CBK268000] | 98.7144 | – |
| c1ccc(-c2ccc(OCCCCN3CCNCC3)cc2)cc1 [CBK266028G] | 179.645 | – |
| O=C(Nc1cccc(S(=O)(=O)N2CCOCC2)c1)c1cc2ccccc2oc1=O [CBK268170] | 107.833 | – |
| CC(NC(=O)c1cc(C(F)(F)F)[nH]n1)c1ccccn1 (centres unmarked) [CBK281712] | 147.162 | – |
| CCC(CN1CCCC1)NC(=O)Cc1cc(C)ccc1OC (centres unmarked) [CBK282759] | 135.008 | – |
| O=C(NCc1ccco1)[C@@H]1C=CCN1C(=O)Nc1ccccc1Cl [CBK284269] | 114.795 | – |
| Nc1nnc(SCC(=O)Nc2ccc3c(c2)OCCO3)s1 [CBK266331] | 124.453 | – |
| CCSC(C)CC1C/C(=N/O)c2c(C)noc2C1 (centres unmarked) [CBK021455] | 132.665 | – |
| C=CCn1c(Cc2csc(NC(=O)c3ccc(Cl)cc3)n2)n[nH]c1=S [CBK295318] | 135.934 | – |
| CCOC(=O)Cn1cnc2nc3c(cc2c1=O)CC(C)CC3 (centres unmarked) [CBK294402] | 167.828 | – |
| c1ccc(Nc2nc3nonc3n3cnnc23)cc1 [CBK287278] | 129.121 | – |
| CC1CCN(S(=O)(=O)c2ccc(NC(=O)C3=COCCO3)cc2)CC1 [CBK295332] | 172.802 | – |

| Compound | % of control remaining [%] | % of control remaining (Bulk GFP fluorescence) [%] |
| --- | --- | --- |
| Nc1nc(=O)n([C@@H]2O[C@H](CO)[C@H](O)C2O)cc1I (some centres unmarked) [CBK201306] | 122.29 | – |
| COC(=O)[C@@H](C)NC(=O)[C@H]1CN(C(=O)c2cccnc2)CCN1C(=O)NC(C)C [CBK289630] | 120.208 | – |
| CCN(CC)C(=O)c1cccc(NS(=O)(=O)c2ccc(C)c(C(=O)O)c2)c1 [CBK296665] | 119.07 | – |
| CN1CCC[C@H]1C(=O)N1CCN(C(=O)c2ccco2)CC1 [CBK144449] | 119.583 | – |
| CC(=O)Nc1onc(C)c1-c1nc(-c2ccc(Cl)cc2Cl)cs1 [CBK067735] | 99.0303 | – |
| O=C(c1ccco1)N1CCN(c2cncc(-c3ccc4ccccc4c3)n2)CC1 [CBK065184] | 100 | – |
| Cc1cc(=O)oc2cc(OC(C)C(=O)NCC(=O)O)ccc12 (centres unmarked) [CBK286829] | 112.266 | – |
| COc1cc(CNc2cncc(-c3cccs3)n2)cc(OC)c1OC [CBK065526] | 110.89 | – |
| CN1CC(CO)CCC1Cc1c[nH]c2ccccc12 (centres unmarked) [CBK011468] | 139.261 | – |
| Cc1cc(NS(=O)(=O)N2CCOCC2)no1 [CBK269894] | 134.375 | – |
| Cn1c(N2CCOCC2)cc(=O)c2ccccc21 [CBK007775] | 116.931 | – |
| Cc1c(C(=O)O)sc2nc(SCC(=O)NCc3ccccc3)[nH]c(=O)c12 [CBK301214K] | – | 158.828 |
| O=C(Cc1ccc(F)cc1Cl)N1CCC(O)(c2ccccn2)CC1 [CBK283755] | 115.92 | – |
| CC(=O)N1CCN(Cc2c(C3CCCC3)[nH]c3ncccc23)CC1 [CBK285339] | 140.313 | – |
| COc1ccc2nc(C(=O)O)sc2c1 [CBK026523N] | 114.517 | – |
| NC(=O)c1ccccc1NC(=O)COc1ccccc1 [CBK262599] | 100 | – |
| COc1ccc(C2(CN3CCC(NC(C)=O)CC3)CC2)cc1 [CBK285357] | 131.812 | – |
| COc1ccc2[nH]cc(CCNC(=O)Cc3ccsc3)c2c1 [CBK116205] | 110.729 | – |
| Cc1ccc(-c2ccc(N3CCCC(C(=O)O)C3)nn2)cc1C (centres unmarked) [CBK300513] | 131.839 | – |
| O=S(=O)(Nc1ccc2c(ccn2Cc2ccccc2)c1)c1cc(C(F)(F)F)cc(C(F)(F)F)c1 [CBK159540] | 132.876 | – |
| O=C1NC2(CCNCC2)Oc2ccc(-c3cccnc3)cc21 [CBK086611] | 132.068 | – |
| Cc1sc2nc(C(C)Nc3ccc4[nH]c(=O)[nH]c4c3)[nH]c(=O)c2c1C (centres unmarked) [CBK297915] | 110.356 | – |
| Cc1ccc(S(=O)(=O)NC[C@H]2O[C@@H](CC(=O)N3CCc4ccccc43)[C@H](O)[C@@H]2O)cc1 [CBK288917] | 117.204 | – |
| CC(C(=O)Nc1ccc2c(c1)OCO2)N(c1ccc(Cl)cc1)S(C)(=O)=O (centres unmarked) [CBK268595] | 135.242 | – |
| N#CC1=C(N)Oc2[nH]nc(-c3ccc4ccccc4c3)c2C1c1cn(CC(N)=O)nc1-c1ccccc1 (centres unmarked) [CBK266624] | 87.1656 | – |
